According to the supplement of paper PMC10849652:
The list shows a part of the results.

The chains behind the UniProt entries cited, without tags or fusion partners. Where a name states a change or a piece, a line headed by the entry shows the natural chain unless it says otherwise.
UniProt O95248: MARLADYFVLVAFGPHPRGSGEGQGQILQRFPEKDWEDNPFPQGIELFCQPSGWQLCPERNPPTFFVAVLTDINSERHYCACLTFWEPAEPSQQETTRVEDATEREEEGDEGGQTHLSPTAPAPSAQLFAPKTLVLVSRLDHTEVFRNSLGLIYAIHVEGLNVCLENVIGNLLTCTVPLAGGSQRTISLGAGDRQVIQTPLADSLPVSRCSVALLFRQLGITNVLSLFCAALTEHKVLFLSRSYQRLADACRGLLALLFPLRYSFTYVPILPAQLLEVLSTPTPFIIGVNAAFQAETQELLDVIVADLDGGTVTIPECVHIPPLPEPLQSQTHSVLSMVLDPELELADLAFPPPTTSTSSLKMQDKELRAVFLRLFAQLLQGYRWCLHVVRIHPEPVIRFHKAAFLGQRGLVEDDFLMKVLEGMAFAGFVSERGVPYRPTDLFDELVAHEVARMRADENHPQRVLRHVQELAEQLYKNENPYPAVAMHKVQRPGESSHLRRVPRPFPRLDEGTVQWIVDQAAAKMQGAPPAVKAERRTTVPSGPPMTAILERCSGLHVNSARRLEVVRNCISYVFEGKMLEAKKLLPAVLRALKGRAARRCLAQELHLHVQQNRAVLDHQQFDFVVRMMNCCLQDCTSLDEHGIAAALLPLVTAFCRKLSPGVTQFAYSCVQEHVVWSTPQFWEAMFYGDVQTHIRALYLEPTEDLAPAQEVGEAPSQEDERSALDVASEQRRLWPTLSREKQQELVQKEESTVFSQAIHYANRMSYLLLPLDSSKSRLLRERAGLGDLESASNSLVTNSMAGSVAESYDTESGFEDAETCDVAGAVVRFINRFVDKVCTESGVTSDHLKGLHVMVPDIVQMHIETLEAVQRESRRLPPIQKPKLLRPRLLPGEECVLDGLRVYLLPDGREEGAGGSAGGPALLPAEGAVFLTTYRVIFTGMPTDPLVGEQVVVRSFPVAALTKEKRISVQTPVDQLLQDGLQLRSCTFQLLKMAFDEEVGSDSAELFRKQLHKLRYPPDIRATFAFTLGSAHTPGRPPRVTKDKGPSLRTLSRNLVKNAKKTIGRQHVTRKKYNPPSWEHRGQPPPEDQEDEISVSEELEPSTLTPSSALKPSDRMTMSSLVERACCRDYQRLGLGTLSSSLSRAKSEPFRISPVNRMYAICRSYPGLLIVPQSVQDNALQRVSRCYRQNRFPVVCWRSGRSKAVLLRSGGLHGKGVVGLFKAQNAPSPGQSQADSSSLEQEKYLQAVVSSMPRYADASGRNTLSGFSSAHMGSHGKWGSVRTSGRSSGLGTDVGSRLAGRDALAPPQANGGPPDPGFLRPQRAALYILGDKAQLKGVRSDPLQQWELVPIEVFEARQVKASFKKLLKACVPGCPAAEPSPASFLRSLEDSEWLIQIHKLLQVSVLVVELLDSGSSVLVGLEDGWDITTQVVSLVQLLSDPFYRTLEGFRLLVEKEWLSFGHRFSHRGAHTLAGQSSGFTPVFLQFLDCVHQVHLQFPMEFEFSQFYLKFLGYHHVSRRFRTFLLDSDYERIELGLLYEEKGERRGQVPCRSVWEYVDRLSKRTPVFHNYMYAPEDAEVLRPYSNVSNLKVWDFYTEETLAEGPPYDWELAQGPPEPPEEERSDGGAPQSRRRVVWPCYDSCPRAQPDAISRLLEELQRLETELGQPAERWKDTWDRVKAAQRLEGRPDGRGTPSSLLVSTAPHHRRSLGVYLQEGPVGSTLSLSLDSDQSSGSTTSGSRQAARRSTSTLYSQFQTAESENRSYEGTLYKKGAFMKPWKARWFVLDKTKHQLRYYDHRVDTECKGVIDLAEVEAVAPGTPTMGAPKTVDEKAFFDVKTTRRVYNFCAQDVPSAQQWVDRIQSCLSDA
UniProt Q15437: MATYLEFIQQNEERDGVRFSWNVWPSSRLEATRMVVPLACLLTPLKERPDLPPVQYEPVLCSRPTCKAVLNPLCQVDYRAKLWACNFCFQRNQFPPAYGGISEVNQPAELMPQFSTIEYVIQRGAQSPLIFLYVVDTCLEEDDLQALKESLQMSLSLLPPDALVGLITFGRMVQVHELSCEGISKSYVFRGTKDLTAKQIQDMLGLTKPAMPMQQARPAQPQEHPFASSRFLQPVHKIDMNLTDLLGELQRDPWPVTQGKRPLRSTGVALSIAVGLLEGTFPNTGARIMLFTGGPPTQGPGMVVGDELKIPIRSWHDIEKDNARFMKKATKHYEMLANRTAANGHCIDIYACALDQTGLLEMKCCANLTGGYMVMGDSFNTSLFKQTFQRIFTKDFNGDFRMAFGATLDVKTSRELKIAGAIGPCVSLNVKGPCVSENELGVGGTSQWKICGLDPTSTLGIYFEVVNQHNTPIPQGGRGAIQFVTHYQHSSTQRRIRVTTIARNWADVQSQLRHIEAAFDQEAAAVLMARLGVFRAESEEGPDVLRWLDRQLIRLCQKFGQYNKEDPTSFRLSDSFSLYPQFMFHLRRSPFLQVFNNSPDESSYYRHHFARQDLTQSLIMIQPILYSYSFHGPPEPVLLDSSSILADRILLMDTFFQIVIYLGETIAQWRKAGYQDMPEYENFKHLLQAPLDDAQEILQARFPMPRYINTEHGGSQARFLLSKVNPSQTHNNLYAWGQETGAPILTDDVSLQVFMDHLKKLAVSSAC
UniProt Q96DX4: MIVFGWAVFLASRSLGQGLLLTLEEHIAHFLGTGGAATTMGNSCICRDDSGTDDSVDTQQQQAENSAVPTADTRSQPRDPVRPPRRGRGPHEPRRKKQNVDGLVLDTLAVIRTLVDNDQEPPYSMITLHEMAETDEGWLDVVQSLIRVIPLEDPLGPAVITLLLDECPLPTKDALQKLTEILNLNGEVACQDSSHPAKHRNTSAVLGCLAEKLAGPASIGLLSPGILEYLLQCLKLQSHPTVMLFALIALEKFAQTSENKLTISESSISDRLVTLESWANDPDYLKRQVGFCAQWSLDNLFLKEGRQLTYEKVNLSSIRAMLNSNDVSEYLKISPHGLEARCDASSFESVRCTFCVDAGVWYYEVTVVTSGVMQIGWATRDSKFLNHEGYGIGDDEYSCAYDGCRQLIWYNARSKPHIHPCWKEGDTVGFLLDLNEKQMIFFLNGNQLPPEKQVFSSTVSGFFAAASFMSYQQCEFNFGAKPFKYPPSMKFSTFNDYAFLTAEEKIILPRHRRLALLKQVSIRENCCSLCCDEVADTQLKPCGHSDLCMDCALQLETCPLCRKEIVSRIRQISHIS
UniProt Q9BY42: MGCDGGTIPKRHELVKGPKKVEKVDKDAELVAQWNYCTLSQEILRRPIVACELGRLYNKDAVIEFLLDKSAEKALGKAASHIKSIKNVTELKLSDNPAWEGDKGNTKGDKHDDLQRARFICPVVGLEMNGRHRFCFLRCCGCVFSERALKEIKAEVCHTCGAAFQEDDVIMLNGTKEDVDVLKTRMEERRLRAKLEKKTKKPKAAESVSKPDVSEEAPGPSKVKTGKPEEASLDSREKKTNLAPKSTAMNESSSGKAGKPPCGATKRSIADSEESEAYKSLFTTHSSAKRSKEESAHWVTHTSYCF
UniProt Q9UPN6: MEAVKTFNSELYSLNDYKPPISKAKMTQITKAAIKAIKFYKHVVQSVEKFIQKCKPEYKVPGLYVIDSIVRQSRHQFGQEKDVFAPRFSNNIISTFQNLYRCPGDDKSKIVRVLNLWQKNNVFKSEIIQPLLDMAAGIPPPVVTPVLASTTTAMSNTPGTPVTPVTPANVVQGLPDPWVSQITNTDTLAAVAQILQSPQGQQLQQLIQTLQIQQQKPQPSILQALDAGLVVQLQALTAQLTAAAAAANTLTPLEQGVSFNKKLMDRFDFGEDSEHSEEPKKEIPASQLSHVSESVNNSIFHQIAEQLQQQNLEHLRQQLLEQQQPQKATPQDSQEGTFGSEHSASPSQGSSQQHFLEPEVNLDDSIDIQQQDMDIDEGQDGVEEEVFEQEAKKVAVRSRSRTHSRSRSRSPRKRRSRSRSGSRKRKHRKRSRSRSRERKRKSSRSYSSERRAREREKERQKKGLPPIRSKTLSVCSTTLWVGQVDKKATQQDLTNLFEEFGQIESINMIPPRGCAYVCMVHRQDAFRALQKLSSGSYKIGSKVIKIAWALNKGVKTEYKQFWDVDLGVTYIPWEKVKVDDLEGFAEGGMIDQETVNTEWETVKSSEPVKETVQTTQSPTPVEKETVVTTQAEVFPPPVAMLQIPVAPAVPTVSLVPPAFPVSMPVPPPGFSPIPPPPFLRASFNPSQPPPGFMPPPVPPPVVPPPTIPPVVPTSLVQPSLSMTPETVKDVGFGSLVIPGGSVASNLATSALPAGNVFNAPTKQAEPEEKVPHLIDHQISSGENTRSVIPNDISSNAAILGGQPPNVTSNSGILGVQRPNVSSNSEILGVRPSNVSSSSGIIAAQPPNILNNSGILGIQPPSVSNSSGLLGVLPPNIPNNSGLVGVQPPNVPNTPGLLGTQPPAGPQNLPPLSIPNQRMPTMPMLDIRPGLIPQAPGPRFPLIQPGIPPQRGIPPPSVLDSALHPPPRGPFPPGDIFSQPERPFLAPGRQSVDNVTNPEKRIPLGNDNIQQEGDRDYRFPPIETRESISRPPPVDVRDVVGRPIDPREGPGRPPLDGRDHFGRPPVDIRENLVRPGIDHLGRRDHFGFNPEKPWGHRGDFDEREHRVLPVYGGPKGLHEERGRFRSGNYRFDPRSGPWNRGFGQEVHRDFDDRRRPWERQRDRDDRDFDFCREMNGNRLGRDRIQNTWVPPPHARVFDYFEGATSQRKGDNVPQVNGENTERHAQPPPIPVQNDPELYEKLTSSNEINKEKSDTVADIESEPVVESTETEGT
UniProt Q99584: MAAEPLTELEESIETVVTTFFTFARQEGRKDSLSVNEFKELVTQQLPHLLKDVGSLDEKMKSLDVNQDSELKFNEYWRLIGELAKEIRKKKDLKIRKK
UniProt Q6UVJ0: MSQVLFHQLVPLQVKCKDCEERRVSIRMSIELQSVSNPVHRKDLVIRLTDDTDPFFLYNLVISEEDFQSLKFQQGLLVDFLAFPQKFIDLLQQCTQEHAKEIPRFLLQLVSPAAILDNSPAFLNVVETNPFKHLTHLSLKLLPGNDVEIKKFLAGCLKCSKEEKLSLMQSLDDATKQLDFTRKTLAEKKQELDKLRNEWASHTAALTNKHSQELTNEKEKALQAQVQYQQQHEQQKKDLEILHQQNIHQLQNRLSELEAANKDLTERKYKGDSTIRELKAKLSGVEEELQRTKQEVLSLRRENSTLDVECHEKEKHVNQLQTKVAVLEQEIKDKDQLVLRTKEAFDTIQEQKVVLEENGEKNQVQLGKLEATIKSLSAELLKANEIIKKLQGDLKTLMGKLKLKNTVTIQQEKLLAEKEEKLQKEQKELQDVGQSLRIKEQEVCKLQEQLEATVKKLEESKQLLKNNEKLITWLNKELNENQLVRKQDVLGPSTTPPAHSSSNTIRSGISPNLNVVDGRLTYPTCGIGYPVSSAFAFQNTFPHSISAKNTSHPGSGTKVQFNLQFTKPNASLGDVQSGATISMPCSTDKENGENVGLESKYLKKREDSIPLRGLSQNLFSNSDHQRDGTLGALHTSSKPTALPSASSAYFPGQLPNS
UniProt Q9NSI8: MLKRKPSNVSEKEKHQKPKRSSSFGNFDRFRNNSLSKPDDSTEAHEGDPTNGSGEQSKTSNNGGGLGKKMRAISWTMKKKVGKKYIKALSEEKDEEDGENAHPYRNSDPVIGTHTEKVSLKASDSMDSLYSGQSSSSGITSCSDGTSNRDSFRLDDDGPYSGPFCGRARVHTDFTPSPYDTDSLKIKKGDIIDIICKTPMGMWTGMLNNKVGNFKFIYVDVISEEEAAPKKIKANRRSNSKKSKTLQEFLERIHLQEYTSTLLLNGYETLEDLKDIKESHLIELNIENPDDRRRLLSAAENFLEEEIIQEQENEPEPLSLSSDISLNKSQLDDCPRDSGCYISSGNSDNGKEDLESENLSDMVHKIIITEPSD
UniProt O95969: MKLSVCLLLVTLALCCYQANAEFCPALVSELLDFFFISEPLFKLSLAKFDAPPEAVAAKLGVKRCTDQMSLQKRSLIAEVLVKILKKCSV
UniProt Q96IZ7: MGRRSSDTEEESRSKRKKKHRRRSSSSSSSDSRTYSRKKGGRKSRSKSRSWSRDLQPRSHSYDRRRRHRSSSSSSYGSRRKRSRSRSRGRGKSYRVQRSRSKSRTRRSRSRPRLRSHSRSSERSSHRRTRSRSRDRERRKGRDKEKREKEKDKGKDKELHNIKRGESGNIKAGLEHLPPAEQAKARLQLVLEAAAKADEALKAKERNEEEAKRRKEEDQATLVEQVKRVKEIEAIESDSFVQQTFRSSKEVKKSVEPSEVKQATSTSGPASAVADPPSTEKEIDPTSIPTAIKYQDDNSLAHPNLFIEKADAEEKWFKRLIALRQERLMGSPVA

Experiments:
Experiment in all cases: log2 fold change, soluble protein after heating vs DMSO (PISA); higher = thermal stabilisation; K562 cells, 10 uM, 30 min; active = over 0.2 and 3.5 SD of the protein, either way, in both replicates (recomputed)
saracatinib = compound: CN1CCN(CCOc2cc(OC3CCOCC3)c3c(Nc4c(Cl)ccc5c4OCO5)ncnc3c2)CC1 [saracatinib]
Method in brief: (§1)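 K562 cells at 2×10^6 cells/mL were treated for 30 min with 10 μM compound, and aliquots were heated for 3 min over 48°C-58°C before pooling. Extraction used PBS with 0.5% NP-40 at 4°C, and soluble protein was the supernatant after 21,000xg for 90 min, measured by TMTpro 16plex LC-MS/MS with channel sums equalised. Thermal stability values, relative to control samples and from duplicates, are log2 fold changes.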

sotrastaurin = compound: CN1CCN(c2nc(C3=C(c4c[nH]c5ccccc45)C(=O)NC3=O)c3ccccc3n2)CC1 [sotrastaurin]
Method in brief: as §1

alvocidib = compound: CN1CC[C@H](c2c(O)cc(O)c3c(=O)cc(-c4ccccc4Cl)oc23)[C@H](O)C1 [alvocidib]
Method in brief: as §1

Tubastatin A = compound: CN1CCc2c(c3ccccc3n2Cc2ccc(C(=O)NO)cc2)C1 [Tubastatin A]
Method in brief: as §1

[1] = compound: CNC(=O)C1=CC=CC=C1NC2=NC(=NC=C2Cl)NC3=C(C=C(C=C3)N4CCOCC4)OC
Method in brief: as §1

defactinib = compound: CNC(=O)c1ccc(Nc2ncc(C(F)(F)F)c(NCc3nccnc3N(C)S(C)(=O)=O)n2)cc1 [defactinib]
Method in brief: as §1

rucaparib = compound: CNCc1ccc(-c2[nH]c3cc(F)cc4c3c2CCNC4=O)cc1 [rucaparib]
Method in brief: as §1

[2] = compound: CNc1nc(-c2ccc3c(N)n[nH]c3c2)cc(N2C[C@@H](C(=O)NC3CCCCC3)CC[C@H]2C)n1
Method in brief: as §1

encorafenib = compound: COC(=O)N[C@@H](C)CNc1nccc(-c2cn(C(C)C)nc2-c2cc(Cl)cc(NS(C)(=O)=O)c2F)n1 [encorafenib]
Method in brief: as §1

[3] = compound: COC(=O)[C@H](CCSC)NC(=O)C1=C(C=C(C=C1)NC[C@H](CS)N)C2=CC=CC=C2
Method in brief: as §1

[4] = compound: COC1=CC=C(C=C1)CN2C=CC3=C2C=C(C=C3)C(=O)NO
Method in brief: as §1

filanesib = compound: CON(C)C(=O)N1N=C(c2cc(F)ccc2F)S[C@@]1(CCCN)c1ccccc1 [filanesib]
Method in brief: as §1

zotarolimus = compound: CO[C@H]1C[C@@H]2CC[C@@H](C)[C@@](O)(O2)C(=O)C(=O)N2CCCC[C@H]2C(=O)O[C@H]([C@H](C)C[C@@H]2CC[C@H](n3cnnn3)[C@H](OC)C2)CC(=O)[C@H](C)/C=C(\C)[C@@H](O)[C@@H](OC)C(=O)[C@H](C)C[C@H](C)/C=C/C=C/C=C/1C [zotarolimus]
Method in brief: as §1

idasanutlin = compound: COc1cc(C(=O)O)ccc1NC(=O)[C@@H]1N[C@@H](CC(C)(C)C)[C@](C#N)(c2ccc(Cl)cc2F)[C@H]1c1cccc(Cl)c1F [idasanutlin]
Method in brief: as §1

alisertib = compound: COc1cc(Nc2ncc3c(n2)-c2ccc(Cl)cc2C(c2c(F)cccc2OC)=NC3)ccc1C(=O)O [alisertib]
Method in brief: as §1

[5] = compound: COc1cc2nc(-c3cc(F)ccc3O)nc(N[C@@H]3CNC[C@H]3C(C)(C)O)c2cc1OC
Method in brief: as §1

gefitinib = compound: COc1cc2ncnc(Nc3ccc(F)c(Cl)c3)c2cc1OCCCN1CCOCC1 [gefitinib]
Method in brief: as §1

[6] = compound: COc1cccc2cc(-c3nc([C@H]4CC[C@H](C(=O)O)CC4)n4ncnc(N)c34)[nH]c12
Method in brief: as §1

lapatinib = compound: CS(=O)(=O)CCNCc1ccc(-c2ccc3ncnc(Nc4ccc(OCc5cccc(F)c5)c(Cl)c4)c3c2)o1 [lapatinib]
Method in brief: as §1

pictilisib = compound: CS(=O)(=O)N1CCN(Cc2cc3nc(-c4cccc5[nH]ncc45)nc(N4CCOCC4)c3s2)CC1 [pictilisib]
Method in brief: as §1

Row | Target | log2 fold change (saracatinib) | log2 fold change (sotrastaurin) | log2 fold change (alvocidib) | log2 fold change (Tubastatin A) | log2 fold change [1] | log2 fold change (defactinib) | log2 fold change (rucaparib) | log2 fold change [2] | log2 fold change (encorafenib) | log2 fold change [3] | log2 fold change [4] | log2 fold change (filanesib) | log2 fold change (zotarolimus) | log2 fold change (idasanutlin) | log2 fold change (alisertib) | log2 fold change [5] | log2 fold change (gefitinib) | log2 fold change [6] | log2 fold change (lapatinib) | log2 fold change (pictilisib)
1 | SBF1 isoform 4 (UniProt O95248) | inactive: -0.107 | inactive: 0.019 | inactive: -0.133 | inactive: -0.018 | inactive: -0.212 | inactive: 0.038 | inactive: 0.171 | inactive: 0.139 | inactive: 0.159 | inactive: -0.017 | inactive: -0.442 | inactive: 0.267 | inactive: 0.057 | inactive: 0.063 | inactive: -0.041 | inactive: -0.071 | inactive: -0.137 | inactive: 0.094 | inactive: -0.003 | inactive: 0.176
2 | SEC23B (UniProt Q15437) | inactive: -0.013 | inactive: 0 | inactive: -0.075 | inactive: -0.001 | inactive: 0.017 | inactive: -0.053 | inactive: 0.03 | inactive: -0.007 | inactive: 0.015 | inactive: -0.022 | inactive: 0.048 | inactive: -0.045 | inactive: -0.012 | inactive: -0.007 | inactive: 0.04 | inactive: 0.029 | inactive: 0.007 | inactive: -0.007 | inactive: -0.032 | inactive: 0.007
3 | RRP12 (UniProt Q5JTH9) | inactive: -0.024 | inactive: -0.118 | – | inactive: 0.125 | inactive: -0.057 | inactive: -0.006 | inactive: 0.183 | inactive: -0.005 | inactive: 0.138 | inactive: 0.076 | inactive: -0.03 | inactive: 0.288 | inactive: -0.046 | inactive: 0.032 | inactive: 0.204 | inactive: 0.222 | inactive: -0.104 | inactive: -0.222 | inactive: -0.128 | inactive: 0.032
4 | RSPRY1 (UniProt Q96DX4) | inactive: -0.073 | inactive: -0.01 | – | inactive: 0.009 | inactive: -0.037 | inactive: 0.013 | inactive: 0.118 | inactive: 0.126 | inactive: 0.04 | inactive: 0.009 | inactive: -0.065 | inactive: 0.01 | inactive: -0.01 | inactive: -0.061 | inactive: -0.051 | inactive: -0.006 | inactive: 0.048 | inactive: 0.031 | inactive: 0.046 | inactive: 0.054
5 | SEC23IP (UniProt Q9Y6Y8) | inactive: -0.097 | inactive: -0.048 | – | inactive: 0.043 | inactive: -0.092 | inactive: -0.156 | inactive: -0.019 | inactive: -0.045 | inactive: 0.058 | inactive: 0.025 | inactive: -0.006 | inactive: 0 | inactive: -0.002 | inactive: 0.016 | inactive: 0 | inactive: -0.065 | inactive: 0.009 | inactive: -0.096 | inactive: 0.035 | inactive: -0.006
6 | RTF2 (UniProt Q9BY42) | inactive: -0.021 | inactive: -0.007 | – | inactive: 0.099 | inactive: 0.083 | inactive: -0.151 | inactive: 0.027 | inactive: -0.142 | inactive: 0.058 | inactive: -0.045 | inactive: -0.021 | inactive: 0.09 | inactive: 0.03 | inactive: 0.066 | inactive: 0.024 | inactive: 0.036 | inactive: 0.049 | inactive: 0 | inactive: 0.026 | inactive: -0.027
7 | RTN4 isoform 2 (UniProt Q9NQC3) | inactive: -0.017 | inactive: 0.058 | inactive: 0.027 | inactive: 0.021 | inactive: 0.111 | inactive: 0.015 | – | inactive: -0.078 | – | inactive: 0.009 | inactive: -0.088 | inactive: 0.126 | inactive: -0.012 | inactive: -0.057 | – | inactive: 0.065 | – | – | inactive: -0.046 | inactive: 0.029
8 | SCAF8 isoform 2 (UniProt Q9UPN6) | inactive: -0.078 | inactive: -0.09 | – | inactive: 0.006 | inactive: -0.085 | inactive: -0.083 | inactive: 0.004 | inactive: 0.016 | inactive: 0.018 | inactive: -0.06 | inactive: 0.026 | inactive: 0.002 | inactive: 0.022 | inactive: -0.003 | inactive: -0.027 | inactive: 0.048 | inactive: 0.058 | inactive: 0.015 | inactive: -0.007 | inactive: -0.055
9 | S100A13 (UniProt Q99584) | inactive: 0.04 | inactive: 0.069 | inactive: -0.006 | inactive: 0.031 | inactive: -0.009 | inactive: 0.011 | inactive: -0.032 | inactive: -0.039 | inactive: -0.02 | inactive: 0.008 | inactive: -0.066 | inactive: -0.052 | inactive: 0.005 | inactive: -0.066 | inactive: -0.02 | inactive: -0.078 | inactive: -0.027 | inactive: 0.056 | inactive: -0.035 | inactive: 0.039
10 | SASS6 (UniProt Q6UVJ0) | inactive: -0.09 | inactive: -0.194 | inactive: -0.317 | inactive: 0.095 | inactive: 0.006 | inactive: -0.052 | – | inactive: 0.098 | – | inactive: 0.034 | inactive: 0.067 | inactive: 0.035 | inactive: 0.087 | inactive: -0.059 | inactive: 0.067 | inactive: 0.107 | inactive: 0.051 | inactive: -0.359 | inactive: 0 | inactive: 0.053
11 | SBNO1 (UniProt A3KN83) | inactive: 0.058 | inactive: 0.017 | inactive: -0.016 | inactive: -0.032 | inactive: 0.037 | inactive: -0.019 | inactive: 0.004 | inactive: 0.008 | inactive: 0.02 | inactive: -0.03 | inactive: 0.033 | inactive: -0.025 | inactive: 0.012 | inactive: -0.011 | inactive: -0.031 | inactive: 0.083 | inactive: -0.001 | inactive: -0.026 | inactive: 0.015 | inactive: 0.036
12 | S100A6 (UniProt P06703) | inactive: -0.099 | inactive: -0.001 | inactive: 0.019 | inactive: 0.088 | inactive: 0.025 | – | inactive: -0.095 | inactive: -0.046 | inactive: 0.14 | – | inactive: -0.127 | inactive: 0.093 | inactive: 0.003 | inactive: -0.04 | inactive: 0.059 | inactive: -0.218 | inactive: -0.016 | inactive: 0.038 | inactive: -0.079 | inactive: 0.344
13 | SAMSN1 isoform 3 (UniProt Q9NSI8) | inactive: -0.023 | inactive: -0.081 | – | inactive: 0.036 | inactive: 0.002 | inactive: -0.051 | inactive: -0.003 | inactive: -0.029 | inactive: 0.046 | inactive: 0.024 | inactive: 0.013 | inactive: -0.021 | inactive: 0.034 | inactive: -0.026 | inactive: 0.007 | inactive: -0.001 | inactive: 0.007 | inactive: -0.029 | inactive: -0.009 | inactive: -0.001
14 | RSL1D1 (UniProt O76021) | inactive: -0.086 | inactive: 0.05 | – | inactive: 0.06 | inactive: 0.004 | active: 0.83 | inactive: 0.359 | inactive: 0.097 | inactive: 0.117 | inactive: 0.079 | inactive: -0.094 | inactive: 0.543 | inactive: 0.055 | inactive: 0.363 | inactive: -0.202 | inactive: 0.181 | inactive: -0.031 | inactive: -0.065 | inactive: 0.181 | inactive: -0.013
15 | SCGB1D2 (UniProt O95969) | inactive: -0.094 | inactive: 0 | inactive: -0.738 | inactive: 0.185 | inactive: -0.224 | inactive: -0.043 | inactive: -0.198 | inactive: 0.035 | inactive: -0.017 | inactive: 0.25 | – | inactive: 0.059 | inactive: -0.037 | inactive: 0.072 | inactive: -0.047 | inactive: -0.098 | inactive: 0.347 | inactive: 0.145 | inactive: -0.084 | –
16 | SCAMP2 (UniProt H3BUB6) | inactive: -0.149 | inactive: 0.171 | – | inactive: -0.056 | inactive: -0.043 | inactive: 0.088 | inactive: 0.072 | inactive: -0.155 | inactive: -0.311 | inactive: 0.096 | inactive: -0.27 | inactive: 0.126 | inactive: -0.217 | inactive: 0.134 | inactive: -0.019 | inactive: 0.319 | inactive: 0.003 | inactive: 0.188 | inactive: -0.329 | –
17 | RSRC1 (UniProt Q96IZ7) | inactive: 0.04 | inactive: 0.042 | – | inactive: 0.018 | active: -0.215 | inactive: -0.018 | inactive: -0.04 | inactive: -0.004 | inactive: 0.023 | inactive: 0.052 | inactive: 0.136 | inactive: -0.003 | inactive: 0.033 | inactive: -0.004 | inactive: -0.084 | inactive: -0.024 | inactive: 0.024 | inactive: 0.001 | inactive: 0.041 | inactive: 0.101

Quoted from the listing.
Entry for SCAMP2 (UniProt H3BUB6) under log2 fold change (gefitinib): inactive: 0.003
Entry for RSRC1 (UniProt Q96IZ7) under log2 fold change (defactinib): inactive: -0.018
